In paper PMC5893762:

How the values were obtained:
[1] = biological target: HA-MGA_0676 (expressed in HEK293T cells) (Mycoplasma gallisepticum (strain BJ44T)); assay: co-IP; HEK293T cells co-transfected with HA and Myc plasmids, 24 h; non-denaturing lysate; IP with anti-HA antibody and protein A/G agarose; blot with anti-HA or anti-Myc
[2] = biological target: HA-MGA_0676 (expressed in DF-1 cells) (Mycoplasma gallisepticum (strain BJ44T)); assay: co-IP; DF-1 cells co-transfected with HA and Myc plasmids, 24 h; non-denaturing lysate; IP with anti-HA antibody; blot with anti-HA or anti-Myc
[3] = biological target: M. gallisepticum MGA_0676 (native, from infecting bacteria) (Mycoplasma gallisepticum (strain BJ44T)); assay: co-IP; DF-1 cells infected with M. gallisepticum (MOI = 10) for 36 h or PBS; IP with anti-MGA_0676 antibody; blot with anti-NAE
[4] = biological target: HA-MGA_0676 (expressed in DF-1 cells) (Mycoplasma gallisepticum (strain BJ44T)); assay: co-IP; DF-1 cells transfected with pCMV-HA-MGA_0676 or empty vector, 24 h; IP with anti-HA antibody; blot with anti-NAE (endogenous NAE)

B1: Myc-NAE (NEDD8-activating enzyme E1 regulatory subunit, expressed in HEK293T cells) (protein, UniProt Q5ZIE6 1-535)
chain: MAQPGRASLKEQRYDRQLRLWGDHGQEALESAHVCVINATATGTEILKNLVLPGIGSFTIVDGNRVSGEDVGNNFFLQKSHIGQSRAQSATELLQELNNDVSGNFVEESPETLLDNDPSFFNRFNLVVATQLSESTVLRLAELLWNSNIPLLICRTYGLVGYMRIIIKEHPVVESHPDNALEDLRLDKQFPELTEHIQSYDLDHMDKKDHSHTPWIVIVAKYLTKWFNEKSDQLPKSYKEKEAFRQLIRQGILKNENGTPEDEENFEEAIKNVNTALNTTKIPRCIEEIFNDDCCVNLTEQSPSFWILVRAVKEFVANEGQGCLPVRGTIPDMIADSSKFIKLQNVYREKAKRDIAAVGNHAAKLLQSLGKAPESISERELKLLCSNSAFLRVVRCRSLSEEYGLNTFNKDEIISNMDNPDSEVVLYLMLRAVDRFYKQHGRYPGVYNYQVEDDIGKLKSCLTSFLQEHGLSVLVKDDYVHEFCRYGAAEPHAIAAFMGGAAAQEIIKVITGQFVIFNNTYIYSGMSQTSATFQL
[1]
  binding: binds

B2: Myc-NAE (NEDD8-activating enzyme E1 regulatory subunit, expressed in DF-1 cells) (protein, UniProt Q5ZIE6 1-535)
chain: B1 chain
[2]
  binding: binds

B3: endogenous NAE (NEDD8-activating enzyme E1 regulatory subunit) of DF-1 cells (protein, UniProt Q5ZIE6 1-535)
chain: B1 chain
[3]
  binding: binds
[4]
  binding: binds

B4: Myc-NAE^ΔThif (protein, UniProt Q5ZIE6)
chain: MAQPGRASLKEQRYDRQLRLWGDHGQEAIKEHPVVESHPDNALEDLRLDKQFPELTEHIQSYDLDHMDKKDHSHTPWIVIVAKYLTKWFNEKSDQLPKSYKEKEAFRQLIRQGILKNENGTPEDEENFEEAIKNVNTALNTTKIPRCIEEIFNDDCCVNLTEQSPSFWILVRAVKEFVANEGQGCLPVRGTIPDMIADSSKFIKLQNVYREKAKRDIAAVGNHAAKLLQSLGKAPESISERELKLLCSNSAFLRVVRCRSLSEEYGLNTFNKDEIISNMDNPDSEVVLYLMLRAVDRFYKQHGRYPGVYNYQVEDDIGKLKSCLTSFLQEHGLSVLVKDDYVHEFCRYGAAEPHAIAAFMGGAAAQEIIKVITGQFVIFNNTYIYSGMSQTSATFQL
[1]
  binding: no binding

These are yes or no findings as the source states them, for the method shown. Binding seen in cells or lysates may run through a third protein. A result given as binding can be weak or reduced; the word gives no strength. For some assays here: Sequences can lack the tags named with a protein.
